# Reference: the supplement of paper PMC8728848
# Some of the results follow.
# Tests used:
# Experiment in all cases: glycan array binding signal (z-score within array); higher = stronger binding
# Details in all cases: glycan notation: IUPAC condensed, linker removed
# [1] = target: GalNAc(b1-4)GlcNAc(b1-2)Man
# Method in brief: (§1)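 Columns mapping to the same glycan were averaged after glycan names were converted to IUPAC-condensed notation. The data come from 3228 arrays in the Consortium for Functional Glycomics database, limited to those with an available protein sequence. Binding is reported as a within-array Z-score averaged across arrays of one protein sequence and across linkers.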
# [2] = target: GalNAc(b1-4)GlcNAc(b1-2)Man(a1-3)[GalNAc(b1-4)GlcNAc(b1-2)Man(a1-6)]Man(b1-4)GlcNAc(b1-4)GlcNAc
# Method in brief: as §1
# [3] = target: GalNAc(b1-4)GlcNAc(b1-3)GalNAc(b1-4)GlcNAc
# Method in brief: as §1
# [4] = target: GalNAc(b1-4)GlcNAc6S
# Method in brief: as §1
# [5] = target: GalNAc(b1-6)GalNAc
# Method in brief: as §1
# [6] = target: GalNAc3S(b1-4)GlcNAc
# Method in brief: as §1
# [7] = target: GalNAc3S(b1-4)GlcNAc3S
# Method in brief: as §1
# [8] = target: GalNAc3S(b1-4)[Fuc(a1-3)]GlcNAc
# Method in brief: as §1
# [9] = target: GalNAc4S6S(b1-4)GlcNAc
# Method in brief: as §1
# [10] = target: GalNAc6S(b1-4)GlcNAc
# Method in brief: as §1
# [11] = target: Glc(a1-4)Glc
# Method in brief: as §1
# [12] = target: Glc(a1-4)Glc(a1-4)Glc(a1-4)Glc
# Method in brief: as §1
# [13] = target: Glc(a1-6)Glc(a1-6)Glc
# Method in brief: as §1
# [14] = target: Glc(a1-6)Glc(a1-6)Glc(a1-6)Glc
# Method in brief: as §1
# [15] = target: Glc(b1-4)Glc
# Method in brief: as §1
# [16] = target: Glc(b1-6)Glc
# Method in brief: as §1
# [17] = target: GlcA(b1-3)Gal
# Method in brief: as §1
# [18] = target: GlcA(b1-3)GlcNAc
# Method in brief: as §1
# [19] = target: GlcA(b1-6)Gal
# Method in brief: as §1
# [20] = target: GlcA3S(b1-3)Gal(b1-4)GlcNAc(b1-2)Man
# Method in brief: as §1
# [21] = target: GlcA3S(b1-3)Gal(b1-4)GlcNAc(b1-3)Gal(b1-4)Glc
# Method in brief: as §1
# [22] = target: GlcNAc(a1-3)Gal(b1-4)GlcNAc
# Method in brief: as §1
# [23] = target: GlcNAc(a1-4)Gal(b1-3)GlcNAc
# Method in brief: as §1
# [24] = target: GlcNAc(a1-4)Gal(b1-4)GalNAc
# Method in brief: as §1
# [25] = target: GlcNAc(a1-4)Gal(b1-4)GlcNAc
# Method in brief: as §1
# [26] = target: GlcNAc(a1-4)Gal(b1-4)GlcNAc(b1-3)Gal(b1-4)Glc
# Method in brief: as §1
# [27] = target: GlcNAc(a1-4)Gal(b1-4)GlcNAc(b1-3)Gal(b1-4)GlcNAc
# Method in brief: as §1
# [28] = target: GlcNAc(a1-4)Gal(b1-4)GlcNAc(b1-3)Gal(b1-4)GlcNAc(b1-3)Gal(b1-4)GlcNAc
# Method in brief: as §1
# [29] = target: GlcNAc(a1-4)Gal(b1-4)GlcNAc(b1-3)Gal(b1-4)[Fuc(a1-3)]GlcNAc(b1-3)Gal(b1-4)[Fuc(a1-3)]GlcNAc
# Method in brief: as §1
# [30] = target: GlcNAc(a1-6)Gal(b1-4)GlcNAc
# Method in brief: as §1
# [31] = target: GlcNAc(b1-2)Gal(b1-3)GalNAc
# Method in brief: as §1
# [32] = target: GlcNAc(b1-2)Man(a1-3)[GlcNAc(b1-2)Man(a1-6)]Man(b1-4)GlcNAc(b1-4)GlcNAc
# Method in brief: as §1
# [33] = target: GlcNAc(b1-2)Man(a1-3)[GlcNAc(b1-2)Man(a1-6)]Man(b1-4)GlcNAc(b1-4)[Fuc(a1-6)]GlcNAc
# Method in brief: as §1
# [34] = target: GlcNAc(b1-2)Man(a1-3)[GlcNAc(b1-4)][GlcNAc(b1-2)Man(a1-6)]Man(b1-4)GlcNAc(b1-4)GlcNAc
# Method in brief: as §1
# [35] = target: GlcNAc(b1-2)Man(a1-3)[GlcNAc(b1-4)][GlcNAc(b1-2)Man(a1-6)]Man(b1-4)GlcNAc(b1-4)[Fuc(a1-6)]GlcNAc
# Method in brief: as §1
# [36] = target: GlcNAc(b1-2)[GlcNAc(b1-4)]Man(a1-3)[GlcNAc(b1-2)Man(a1-6)]Man(b1-4)GlcNAc(b1-4)GlcNAc
# Method in brief: as §1
# [37] = target: GlcNAc(b1-2)[GlcNAc(b1-4)]Man(a1-3)[GlcNAc(b1-4)][GlcNAc(b1-2)Man(a1-6)]Man(b1-4)GlcNAc(b1-4)GlcNAc
# Method in brief: as §1
binder,measurement,setting,value
PX9961Q-bfa-504-27-504 (Bacteroides fragilis) (protein) NDWLDRKPADGIPSEDAITNYNDALTARTGMYDGIQGNSNATSYYGARMFYYGDVRADDMQARTQGMRSSSCYEMLYTVDDAPNMWNIPYNVIRRANRLIEAINEKKVTDATEAQIGKIYSEALVVRALVHFDLVRIYGMPYTADNGASLGVPVIVKPLERNDLPSRNTVAEVYTQVITDLTDAINSGYLAKDQTPGYINEWAAKALLTRVYLTKGDNENALKVAEDIITNSPYKLWTNEEYVNAWYKSNGAHTNEMIFEVVNASNDDWTDRNGIAYLLNENGYADAIVTKSFMNMLSQDPKDVRIGMVLPAQYDKDLQEEYGDAKIFINKFPADKDDVGEMRLNNLPLLRLSEVYLSAAEAAAKLGGHQDKAAKYLNEIVQRANPEAKAISEADATVERIILERRKEMIGEGQRYFDALRNNETIVRYKDEGDKGYHYSLIKESQSFDRTYFRAILPIPVDETNVNPNLRAQQNPGY,glycan array binding signal (z-score),[1],-0.586
same,glycan array binding signal (z-score),[2],1.65
same,glycan array binding signal (z-score),[3],0.716
same,glycan array binding signal (z-score),[4],-1.03
same,glycan array binding signal (z-score),[5],0.407
same,glycan array binding signal (z-score),[6],-0.773
same,glycan array binding signal (z-score),[7],-0.067
same,glycan array binding signal (z-score),[8],-0.266
same,glycan array binding signal (z-score),[9],-0.043
same,glycan array binding signal (z-score),[10],-1.27
same,glycan array binding signal (z-score),[11],0.181
same,glycan array binding signal (z-score),[12],-0.549
same,glycan array binding signal (z-score),[13],-0.584
same,glycan array binding signal (z-score),[14],-0.611
same,glycan array binding signal (z-score),[15],-0.009
same,glycan array binding signal (z-score),[16],0.413
same,glycan array binding signal (z-score),[17],-0.821
same,glycan array binding signal (z-score),[18],-0.475
same,glycan array binding signal (z-score),[19],2.12
same,glycan array binding signal (z-score),[20],-0.231
same,glycan array binding signal (z-score),[21],-1.22
same,glycan array binding signal (z-score),[22],-0.591
same,glycan array binding signal (z-score),[23],-0.29
same,glycan array binding signal (z-score),[24],0.025
same,glycan array binding signal (z-score),[25],-0.144
same,glycan array binding signal (z-score),[26],-0.143
same,glycan array binding signal (z-score),[27],-0.925
same,glycan array binding signal (z-score),[28],-0.76
same,glycan array binding signal (z-score),[29],0.692
same,glycan array binding signal (z-score),[30],-0.266
same,glycan array binding signal (z-score),[31],-0.108
same,glycan array binding signal (z-score),[32],-0.408
same,glycan array binding signal (z-score),[33],0.213
same,glycan array binding signal (z-score),[34],-0.101
same,glycan array binding signal (z-score),[35],0.694
same,glycan array binding signal (z-score),[36],-0.957
same,glycan array binding signal (z-score),[37],-0.344

# In a second layout: entries from further up
binder | measurement | setting | value
PX9961Q-bfa-504-27-504 (Bacteroides fragilis) (protein) NDWLDRKPADGIPSEDAITNYNDALTARTGMYDGIQGNSNATSYYGARMFYYGDVRADDMQARTQGMRSSSCYEMLYTVDDAPNMWNIPYNVIRRANRLIEAINEKKVTDATEAQIGKIYSEALVVRALVHFDLVRIYGMPYTADNGASLGVPVIVKPLERNDLPSRNTVAEVYTQVITDLTDAINSGYLAKDQTPGYINEWAAKALLTRVYLTKGDNENALKVAEDIITNSPYKLWTNEEYVNAWYKSNGAHTNEMIFEVVNASNDDWTDRNGIAYLLNENGYADAIVTKSFMNMLSQDPKDVRIGMVLPAQYDKDLQEEYGDAKIFINKFPADKDDVGEMRLNNLPLLRLSEVYLSAAEAAAKLGGHQDKAAKYLNEIVQRANPEAKAISEADATVERIILERRKEMIGEGQRYFDALRNNETIVRYKDEGDKGYHYSLIKESQSFDRTYFRAILPIPVDETNVNPNLRAQQNPGY | glycan array binding signal (z-score) | [18] | -0.475
same | glycan array binding signal (z-score) | [19] | 2.12
same | glycan array binding signal (z-score) | [20] | -0.231
